The test can be described thus: qHTS Assay for Lipid Storage Modulators in Drosophila S3 Cells.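 As to cell number change: cells counted by Cell Tracker Red CMTPX staining in the red channel.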 To be noted: BODIPY lipid droplet fluorescence, 18-24 h; for cell number change: measured here: cell count max response, cells fed with added oleic acid. The method in brief:
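Drosophila S3 cells got compounds at several concentrations plus oleic acid (400 uM solution). Laser-scanning cytometry with 488 nm excitation read lipid droplets at 500-530 nm and cells at 575-640 nm. Percent activity was relative to 20 uM Triacsin C.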
(Quantitative high-throughput screening tests each substance at several concentrations.)

Setting [1] is: measured here: lipid fluorescence (Fed channel) AC50, cells fed with added oleic acid.
Where [2] appears, read: measured here: cell number channel AC50, cells fed with added oleic acid.

This is one part of the list. These are further read-outs of the screen, such as a control signal, another cell line or another target. No call is given for them. The list favours compounds with an active or inconclusive main result. Words in brackets tell the shape of the fitted curve; partial curves, single points and poor fits give uncertain potencies.

Regarding `COc1ccc(/C=C2\C(=O)ON=C2c2ccccc2)cc1`, the cell number change is -24.2%. Besides, the AC50 (commonly the concentration giving half of the maximal activity seen) under setting [1] is 32.6 µM [falling, single point].
In the case of `CCCOc1ccc(C(=O)NC(=S)Nc2nc3ccccc3s2)cc1`, the cell number change was -6.9%.
With `Cc1ccc(S(=O)(=O)/N=C(/Nc2ccc3[nH]c(=O)[nH]c3c2)c2ccc(F)cc2)cc1`, the cell number change came to 8.92%.
As for `COC(=O)C1=C(C(=O)OC)[C@@H]2Nc3ccccc3[C@@]23C[C@@H](C(=O)OC)N(C(=O)c2ccc(Br)cc2)C3=N1`, the cell number change was -6.22%. Further, under setting [1], the AC50 was 6.51 µM [falling, single point].
For `CCCc1cc2c(cc1NS(=O)(=O)c1ccc(CCNC(C)=O)cc1)OCO2`, the cell number change is -24.6%. For the same compound, the AC50 under setting [1] was 13 µM [falling, partial curve, poor fit].
On to `Cc1nc(-c2cccc(S(=O)(=O)N3CCCC(C)C3)c2)cs1` (stereo not drawn), for which the cell number change is -14.5%.
`CN(c1ccccc1)S(=O)(=O)c1cccc(C(=O)OCC(=O)NCCCN2CCCC2=O)c1`: under setting [1], the AC50 was 6.51 µM [rising, partial curve, poor fit].
Consider `CCCCN(C(=O)C(C)(C)Oc1ccc(Cl)cc1)c1c(N)n(CCC)c(=O)[nH]c1=O`, for which the cell number change was -15%. Further, the AC50 under setting [1] was 10.3 µM [falling, partial curve].
With `COc1ccc(NC(=O)c2cc(S(=O)(=O)N3CCCC3)cn2C)cc1Cl`, the cell number change was determined as 12.7%. Moreover, under setting [1], the AC50 was 4.11 µM [falling, full curve].
Regarding `CCOC(=O)c1ccc(NC(=O)c2cn(-c3ccccc3)nc2-c2ccncc2)cc1`, the cell number change was -2.73%.
As to `Cc1cc(C)cc(NC(=O)CN2CCc3ccccc3C2)c1`, the cell number change is -33.5%. The concentration at half-maximal activity (AC50) under setting [2] is 29.1 µM [falling, single point]. Further, the concentration at half-maximal activity (AC50) under setting [1] was 16.4 µM [falling, single point].
Turning to `N#CC1=C(N)SC(N)=C(C#N)C1Cc1ccccc1`, the cell number change turned out to be 52.3%. The half-maximal activity concentration (AC50) under setting [2] was 23.1 µM [rising, single point]. The half-maximal activity concentration (AC50) under setting [1] was 29.1 µM [rising, single point].
On to `CCOC(=O)Cn1c(=N)n(CCOc2ccc3ccccc3c2)c2ccccc21`, for which the cell number change amounted to 21.7%. For the same compound, the half-maximal activity concentration (AC50) under setting [1] was 5.8 µM [rising, single point].
`COc1ccc(NC(=O)Nc2ccc(F)c(F)c2)c(OC)c1`: the cell number change is -7.68%. Moreover, the AC50 under setting [1] is 0.231 µM [falling, full curve, poor fit].
With `CCOC(=O)c1c(C)[nH]c(C(=O)OCC(=O)N(CC(C)C)C2CCS(=O)(=O)C2)c1C` (stereo not drawn), the cell number change stood at 2.27%. The AC50 under setting [1] was 0.82 µM [rising, single point].
For `Cc1nc(C)c2c(c1C(F)(F)F)-c1ccccc1C2(F)F`, the cell number change came out at 0.875%.
Consider `O=S(=O)(NC1CCCCC1N1CCCCC1)c1ccccc1` (stereo not drawn), for which the cell number change amounted to 48.6%.
With `CN(C)Cc1c(C(=O)Nc2ccccc2)[nH]c2ccccc12`, the cell number change came out at 15.6%. In addition, the half-maximal activity concentration (AC50) under setting [1] was 9.2 µM [rising, partial curve].
Regarding `Cc1ccc2nc(-c3ccccc3)cc(C(=O)NCC3CCCO3)c2c1` (stereo not drawn), the cell number change was found to be 28.8%. The AC50 under setting [2] is 0.326 µM [rising, full curve, poor fit]. Further, under setting [1], the concentration at half-maximal activity (AC50) is 0.461 µM [rising, full curve, poor fit].
As to `CCn1c(SCC(=O)NCc2ccccc2)nnc1C(CO)NC(=O)c1ccccc1` (stereo not drawn), the cell number change came to 18.5%. Under setting [1], the half-maximal activity concentration (AC50) was 29.1 µM [rising, single point].
`O=C(CC1(O)C(=O)Nc2ccccc21)c1ccc(-n2cccc2)cc1` (stereo not drawn): the cell number change is -6.88%.
As to `CCOC1CCc2c(C)nc(N)nc2S1` (stereo not drawn), the cell number change was -15.3%. The concentration at half-maximal activity (AC50) under setting [2] is 0.00461 µM [falling, full curve, poor fit]. For the same compound, the half-maximal activity concentration (AC50) under setting [1] is 32.6 µM [rising, single point].
`COc1ccc(N2CCN(Cc3cc(=O)oc4ccc(C)cc34)CC2)cc1`: the cell number change was -3.26%. In addition, the concentration at half-maximal activity (AC50) under setting [1] is 2.31 µM [rising, full curve, poor fit].
As for `CCCc1cc(=O)[nH]c(SCC(=O)NC(=O)c2ccccc2)n1`, the cell number change is 0.349%. Under setting [1], the AC50 is 0.00461 µM [falling, full curve, poor fit].
Consider `COc1ccccc1NC(=O)CSc1nnc(CNC(=O)c2ccco2)n1C`, for which the cell number change was -10.5%. Also, under setting [1], the AC50 was 0.112 µM [rising, full curve, poor fit].
With `CCCC(C)C(=O)Nc1ccc(NC(C)=O)cc1` (stereo not drawn), the cell number change is -105%. Besides, the concentration at half-maximal activity (AC50) under setting [2] was 16.4 µM [falling, partial curve]. Moreover, the AC50 under setting [1] was 25.9 µM [falling, partial curve].
In the case of `COc1ccccc1C(=O)NCCCNC(=O)c1cnccn1`, the cell number change worked out at 20.3%. Also, under setting [1], the half-maximal activity concentration (AC50) is 29.1 µM [rising, single point].
Take `NC(=O)c1cc2cc(Br)ccc2o/c1=N/NC(=O)c1cccc(F)c1`: the cell number change was determined as 2.01%. In addition, the AC50 under setting [1] was 2.06 µM [rising, partial curve, poor fit].
`O=C(NCc1ccc(Cl)cc1Cl)C1CC(=O)N(Cc2ccccc2)C1` (stereo not drawn): the cell number change is -17.1%.
Regarding `O=C(CNC(c1ccccc1)c1ccccc1)Nc1c(F)cccc1F`, the cell number change came to 10.8%.
For the compound `O=C(NCCc1c[nH]c2ccccc12)C(=O)Nc1cc2c3c(c1)CC(=O)N3CCC2`, the AC50 under setting [1] is 0.231 µM [rising, full curve, poor fit].
Regarding `COC(=O)c1ccc(CNC(=O)c2ccc3oc(C(C)C)nc3c2)cc1`, the cell number change turned out to be 22%. For the same compound, under setting [1], the half-maximal activity concentration (AC50) is 6.51 µM [rising, single point].
In the case of `CSc1ccc(CNc2ccc(Cl)cc2)cc1`, the cell number change was 24.4%.
Take `COc1ccc(-c2cn(-c3ccc(C)cc3)c(=O)n2CC(=O)Nc2cccc(F)c2)cc1`: the cell number change worked out at 127%. In addition, the AC50 under setting [2] is 23.1 µM [rising, partial curve]. Also, the AC50 under setting [1] is 6.51 µM [falling, single point].
For the compound `O=C(NCCN1CCCc2ccccc21)C1CCC(=O)N(CCc2ccccc2)C1` (stereo not drawn), the cell number change is -5.57%.
Regarding `Cc1cc(C)n(C(CC(=O)O)C(=O)O)n1` (stereo not drawn), the cell number change amounted to 7.95%. Besides, the concentration at half-maximal activity (AC50) under setting [1] is 25.9 µM [falling, partial curve].
Turning to `CCOC(=O)c1nn(-c2ccc(Cl)cc2)c(C)cc1=O`, the cell number change is -19.1%. Under setting [2], the concentration at half-maximal activity (AC50) was 2.31 µM [rising, single point]. Also, the concentration at half-maximal activity (AC50) under setting [1] was 6.51 µM [rising, single point].
On to `CCCn1c(SCC(=O)/C(C#N)=C(\C)N)n[nH]c1=O`, for which the cell number change was 8.86%. Moreover, the AC50 under setting [1] is 25.9 µM [falling, partial curve, poor fit].
For `CCOc1ccc(NC(=O)CSc2nnc(-c3ccccc3)n2N)cc1`, the cell number change is -6.28%. Moreover, under setting [1], the half-maximal activity concentration (AC50) was 0.0259 µM [rising, full curve, poor fit].
With `Cc1ccc(C)c(OCCSc2nnc(C)c(=O)[nH]2)c1`, under setting [1], the AC50 is 0.164 µM [falling, full curve, poor fit].

These data come from PubChem BioAssay AID2685 (National Center for Advancing Translational Sciences (NCATS), 2010).
